Results published in patent publication US7060506.
No constants are given. Whether binding was seen depends on the method and setting. Some results given as binding are weak or reduced against the parent protein; the word gives no strength.

Sequences of proteins named here, by UniProt entry; tags and fusion partners are left off. A change or cut given only in a name is not applied to a line headed by its entry. A line that says so, or that is headed by a name, gives the form on record, which may keep a tag or linker.
ZAP70-FJ (P43403, form named): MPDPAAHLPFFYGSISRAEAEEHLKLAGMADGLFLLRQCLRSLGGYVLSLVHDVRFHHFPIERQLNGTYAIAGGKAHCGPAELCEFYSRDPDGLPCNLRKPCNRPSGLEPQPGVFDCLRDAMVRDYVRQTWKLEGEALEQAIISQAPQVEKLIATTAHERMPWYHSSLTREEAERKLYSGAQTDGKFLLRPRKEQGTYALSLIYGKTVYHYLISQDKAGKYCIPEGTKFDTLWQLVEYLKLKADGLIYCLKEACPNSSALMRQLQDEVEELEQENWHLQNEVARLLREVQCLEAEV

Molecular target: ZAP70-FJ (UniProt P43403)
Assay: fluorescence polarisation, 1 µM labeled peptide with ZAP70-FJ purification fractions

binding: binds
B1: Peptide 1 (synthetic Fos/Jun polypeptide partner), labeled with fluorescein (peptide)
peptide: RMRQLEDRVEELREQNWHLANQVARLRQRVCELKARV
modifications: labeled with fluorescein (position not given)
